This is one part of the list.
What follows are sequences tested against OsWRKY34 (Oryza sativa, UniProt Q0JBA9 1-250) (assay: protein-binding microarray (RPBM); PBS, 2% BSA, 51.3 ng/ul salmon testes DNA, 50 uM zinc acetate, 200 nM TF, 25 C, 1 h; high values mean tight binding). Conditions: protein: recombinant; tags: N-terminal polyhistidine and DsRed monomer fusion (pET32a); label: CyDye5-dUTP incorporated in the synthesized complementary strand; 3' TTTTT single-stranded linker to array surface; dsDNA, one strand shown.
Summary of the method: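 An Axon 4000B scanner gave the binding signal as per-feature fluorescence intensity in arbitrary units. This followed washing of a custom Agilent array that had been incubated for 1 h at 25 °C with 200 nM protein in PBS, 2% BSA, salmon testes DNA and 50 µM zinc acetate. The proteins were transcription factors fused at the N-terminus to polyhistidine and DsRed, expressed in E. coli BL21-CodonPlus and purified on Ni–NTA.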

Sequences of proteins named here, by UniProt entry; tags and fusion partners are left off.
UniProt Q0JBA9, entry or part of it: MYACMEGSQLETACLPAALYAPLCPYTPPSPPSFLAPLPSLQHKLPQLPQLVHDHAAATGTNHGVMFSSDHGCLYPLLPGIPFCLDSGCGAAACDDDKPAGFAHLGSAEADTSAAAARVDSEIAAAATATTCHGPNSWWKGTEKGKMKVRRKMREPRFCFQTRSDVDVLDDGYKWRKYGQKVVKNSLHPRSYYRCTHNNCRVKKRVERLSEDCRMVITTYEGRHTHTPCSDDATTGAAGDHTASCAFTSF

Sequence | binding signal
CATGACAAATGTCCTCATCCATACGCACACTATGATTTTACGGAGTCACCTAGTGCAG | 9330 fluorescence intensity (a.u.)
TTATTATTTTTGTGTGTGAAACTGACATGTGGGTCCCACTCGGAGTCACCTAGTGCAG | 10000 fluorescence intensity (a.u.)
TCCGAGGTGCACAGTGTCCTTCCTGTTGGTGTGATAGTTCCGGAGTCACCTAGTGCAG | 8210 fluorescence intensity (a.u.)
TGCCTGGTCATATTTCCATAGCGACATACTGTACACATTTCGGAGTCACCTAGTGCAG | 10500 fluorescence intensity (a.u.)
CGTTGTTCTGCTTCTCCATGGCCTCCACCTGCATCTGCAACGGAGTCACCTAGTGCAG | 9920 fluorescence intensity (a.u.)
CCGTGTGGTGGTGGTCTGGCTGATTTTTTTTTGTTTTATTCGGAGTCACCTAGTGCAG | 10500 fluorescence intensity (a.u.)
CTGCGTTGACCGGCCGAAGAGAAAAATTGCTGGTCTATGACGGAGTCACCTAGTGCAG | 14400 fluorescence intensity (a.u.)
TACCCTCGAGATTTTGCTGTGTTCCCTCCCATGTCCTTACCGGAGTCACCTAGTGCAG | 9610 fluorescence intensity (a.u.)
CACCATTGATTTTTCTTCTTGTTTTCTCCGACTCTGAGAACGGAGTCACCTAGTGCAG | 8100 fluorescence intensity (a.u.)
CTCCTCCGTCTCGCGCCCGCCGCCGCCGCCACCGCCACCGCGGAGTCACCTAGTGCAG | 11400 fluorescence intensity (a.u.)
CCAAAGGGGCAAGCCTATACACTATTTACCTGAACTTTGCCGGAGTCACCTAGTGCAG | 8390 fluorescence intensity (a.u.)
CGTCACAATTGTCCCGTATTATCTCATACTTCATCAGTGACGGAGTCACCTAGTGCAG | 9840 fluorescence intensity (a.u.)
TATATATATATATATATATTGTTGAACGGTTTGTGCTCTGCGGAGTCACCTAGTGCAG | 10900 fluorescence intensity (a.u.)
GACCACAATTAATTACCACTGCTAAGCTCCATCCTCCATGCGGAGTCACCTAGTGCAG | 8440 fluorescence intensity (a.u.)
GTGCTAAAAAGTCAACGGTGTCAAATATTTAGAAATGAAGCGGAGTCACCTAGTGCAG | 21200 fluorescence intensity (a.u.)
ACTTCCATCGTGATCTTTTTACCATTATTTGGAGCATTTCCGGAGTCACCTAGTGCAG | 11000 fluorescence intensity (a.u.)
GGCATATGACCGGTACTACGACAACCATCACCTCTCGCCGCGGAGTCACCTAGTGCAG | 8160 fluorescence intensity (a.u.)
TCATGGGCGGGTTGAGCAATGTTTCTTGTGATTAGTCTCACGGAGTCACCTAGTGCAG | 16300 fluorescence intensity (a.u.)
TAATGGATTTGTTTGGTCATCTACATGGGAGGGTGGCTCACGGAGTCACCTAGTGCAG | 8200 fluorescence intensity (a.u.)
GCTGACTGACTGACTGACTCCTGACCGCCTTTAACTTTTACGGAGTCACCTAGTGCAG | 14700 fluorescence intensity (a.u.)
CTTCGTCGCTTCCGCGTGTCGTCACACTCCACTCCGTCCACGGAGTCACCTAGTGCAG | 8490 fluorescence intensity (a.u.)

Sequence | binding signal
TTTCATCAATTGCCTCTTGTATCAGCTACTATGCAATATACGGAGTCACCTAGTGCAG | 8850 fluorescence intensity (a.u.)
TGGTTTTGATTGATCGATATTGCTTTTGTTTACCATTGCCCGGAGTCACCTAGTGCAG | 9180 fluorescence intensity (a.u.)
CTATTCACTCGCAGAATCGGCGTACGCCGCTGTGGCTCCGCGGAGTCACCTAGTGCAG | 8820 fluorescence intensity (a.u.)
CGCGGGTGGTCTGGTCTCTCTCTCGTATCGTATCGTATCACGGAGTCACCTAGTGCAG | 16700 fluorescence intensity (a.u.)
TAACTACGACGCTGCTCCAACTTCAACATATGCTAATTGCCGGAGTCACCTAGTGCAG | 8740 fluorescence intensity (a.u.)
TGTGCTGGTACTACTCCTTACTTTCCCGTCCTTAGCTCAGCGGAGTCACCTAGTGCAG | 9010 fluorescence intensity (a.u.)
CGACAGAGATGTGTTTCATGTGTTTCAAGTGGCCTGTCAACGGAGTCACCTAGTGCAG | 8420 fluorescence intensity (a.u.)
AAGGCTGAGATTATTTCCTTCCTGATACATACTGGTCCTACGGAGTCACCTAGTGCAG | 9090 fluorescence intensity (a.u.)
TTATTGTGCCACGTTATCTAGAACCGTCTTCAATATTGTCCGGAGTCACCTAGTGCAG | 8430 fluorescence intensity (a.u.)
CTCCTCCTCCTCGCGCAGACTTCGTTGCTCCTCGCTCGTTCGGAGTCACCTAGTGCAG | 8250 fluorescence intensity (a.u.)
TTATATGCATCGACTAGCTCAACCTATCAACTTAACTAATCGGAGTCACCTAGTGCAG | 9530 fluorescence intensity (a.u.)
CCTCCTTGTTGCGGTCGTCTTTCGCTCTATCTTCCTTGTCCGGAGTCACCTAGTGCAG | 11100 fluorescence intensity (a.u.)
AGCCGGCCTCCGCTCCCATCGGCTGCGCCTCTCTGCGTCACGGAGTCACCTAGTGCAG | 8320 fluorescence intensity (a.u.)
CCCGCCGCTCCATGCCTGACCAGTTCAACTCCACCAACTCCGGAGTCACCTAGTGCAG | 11000 fluorescence intensity (a.u.)
CTATGTCCAACGTTTGACCGTCCGTCTTATTTAAAATATTCGGAGTCACCTAGTGCAG | 8230 fluorescence intensity (a.u.)
GTAATTTAATGTTCATTATGGTGTTTCTTAATTGTTTTTTCGGAGTCACCTAGTGCAG | 9320 fluorescence intensity (a.u.)
GATGAGTGGTGATTGGTGAAGATATCTGGTGGTTTTGGGACGGAGTCACCTAGTGCAG | 8630 fluorescence intensity (a.u.)
TACTGCCTCTCTCTGACCCCATTGACCAACTCCGTTGACCCGGAGTCACCTAGTGCAG | 15800 fluorescence intensity (a.u.)
TCCATCTCCAAGTCCGGTGACTCAGTAATCACTTCGCACACGGAGTCACCTAGTGCAG | 8270 fluorescence intensity (a.u.)
ACTTTCATCACTTCGGAAGTATTTTTCTTGCATCTCTTGACGGAGTCACCTAGTGCAG | 8480 fluorescence intensity (a.u.)
CCGCCCGGGCCCCGCGCCCACTGCCCCGCCGCCTCCCGCCCGGAGTCACCTAGTGCAG | 10500 fluorescence intensity (a.u.)

Source: PMC7819943, “Rice protein-binding microarrays: a tool to detect cis-acting elements near promoter regions in rice”
